We go through 117 substances from the supplement of paper PMC5949888.

Most values lie at the floor of the assay. Slopes are relative: functional sequences can read slightly below zero.

The data set deals with Saccharomyces cerevisiae PS128 hsf1 delta, HSF1(1-493) fusion. Briefly: growth estimate (transactivation domain function in HSF1 fusion, heat-shock survival) (a.u. (slope of normalised read count over time)); higher = stronger growth at 37°C, i.e. more transactivation activity. The conditions noted are these: library: random library. The protocol:
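Random 60-nt DNA library encoding peptides of up to 20 aa, fused to the C-terminus of yeast HSF1 residues 1-493 (C-terminal TAD deleted) and expressed from the native HSF1 promoter on a CEN plasmid in hsf1-deleted S. cerevisiae PS128. Cells were selected at 37°C on -trp 5-FOA plates for 0, 2, 4, 6 and 8 days and amplicons were sequenced. Growth estimate is the slope of a robust linear fit of total-sum-normalised read counts (normalised to the first time point) over time, using at least 2 replicates. Sequences are classed functional (TAD activity) above a threshold of -0.13, set from stop-codon control sequences.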
Turning to EAVSPVWIVVRRGFVCTRIH, the growth estimate was under -0.25.

Take FCIELSCGGPLLRKHASCAS: the growth estimate was under -0.25. Turning to GHIISSVECSI, the growth estimate is under -0.25. In the case of RACEVRASVALTGGRGRS it was under -0.25; in that of RPRSP, under -0.25.

Turning to NVTRDLRGGARRS, the growth estimate is under -0.25. To EDSGDIVGISLKSLKGPDLY belongs under -0.25. To GDEVFY belongs under -0.25; to SCYLFDCRSY, under -0.25. For the substance KRVHYHLLATFMFKALTSRR, the growth estimate is under -0.25.

In the case of DFYEGGWEGLIDGPTRI, the growth estimate is under -0.25. As to MAEAVGLRQYARHLVDKVGA, the growth estimate is under -0.25. With TFDVATTPHRDTVDYYLEVE, the growth estimate was under -0.25.

Consider LRGTNGSVDVIPGQTTGG, for which the growth estimate was under -0.25.

As for SCASVWCPRE, the growth estimate is under -0.25. To PEWFP belongs under -0.25; to APTFREGPVGGDFGR, under -0.25. To GTWGPRCIRCI belongs under -0.25. In the case of RSCLLNQFTAALTHEGNNAR it was under -0.25; in that of KKLSWVSYRNIKFRHHPSGV, under -0.25; in that of QPYPW, under -0.25. GAVRTADSVITDRLLHS: the growth estimate is under -0.25. In the case of QEKGCPLLETIGGHSAPT it was under -0.25; in that of YVEHGFA, -0.206; in that of SLSGSTRFR, under -0.25.

On to CSLFVLT, for which the growth estimate is under -0.25. In the case of RSTEMLDFSAELRNEGKKFL it was under -0.25; in that of YST, under -0.25. As for MPRGHPSLRGKSIRM, the growth estimate was under -0.25. To TSGLKSYTLWWSLSKKVAGD belongs under -0.25; to SIRTTQYWRAEVPSLSNLEG, under -0.25; to TLRKWVRGVPCGLLQYTRTQ, under -0.25. In the case of VRGSIHCQKQSNYEFVGPRW it was under -0.25; in that of GESVLSCEYLSALGEFLVTS, under -0.25.

KDWLLGYGSTYDFRIRVTSN: the growth estimate is under -0.25. As to DLFNSARLSPG, the growth estimate is under -0.25.

As for HLMRETLAALALPDDRIERC, the growth estimate was under -0.25.

Consider MESRLLRPPGFL, for which the growth estimate is under -0.25.

As for CEMQSTF, the growth estimate was under -0.25. In the case of PSGIRSCS it was under -0.25; in that of VVFGVPPGRFHDATGSGRAR, under -0.25; in that of SRHAFGGVRKILEAPTGGPG, under -0.25. To PVEI belongs under -0.25; to LRKALELVEQVVFTSRCQRA, -0.0565; to WVGR, under -0.25. In the case of NNPPRGTFVSD it was under -0.25; in that of EGRTRFGTLSECWP, under -0.25; in that of LGDGSGNVDKGQRSVQPSMH, under -0.25.

For SVHWLARTLDLAEDKKSTGP, the growth estimate was under -0.25. In the case of FKR it was under -0.25; in that of ARLRVVDVPTLGAGPVGGTE, under -0.25; in that of GGVRRYSLGHLISGALNESR, under -0.25. In the case of TRCHSLVPRVIHPSRHGYIN it was under -0.25; in that of VKAWYSPRYA, under -0.25; in that of FRYNARQWCSPGVPKRLHVG, under -0.25. In the case of ATCL it was under -0.25; in that of RAWASTTAIGRRSWIIG, under -0.25. Regarding IRRIRVVTAEHGTTFSA, the growth estimate is under -0.25.

In the case of LSCFLVNLLSILSKKRKSLL, the growth estimate is under -0.25. For the substance RTS, the growth estimate was under -0.25. To NINQPTVPLFLAFLSLFRIQ belongs under -0.25.

Regarding AVPHHPTQFIVATFTSHCSS, the growth estimate is under -0.25.

On to TSQRFPPTVTEQ, for which the growth estimate is under -0.25. To RHRKESGGVRLVCT belongs under -0.25; to GQPQVYIVPHVGVAPDSSLS, under -0.25; to HVPSLIVIQATLWLAKSGVP, under -0.25.

Turning to ITTGR, the growth estimate is under -0.25. In the case of TGQTLLSVINRFGLH it was under -0.25. To PPGANPCG belongs under -0.25. Regarding RLGLRSRRLVKCHGSSATAS, the growth estimate is under -0.25. In the case of SWQVHWLTGPI it was under -0.25. In the case of TEVPAPDLGRCLKGDGYI it was under -0.25; in that of IGAYKHG, -0.246. To QIQTNDDRGGFSRGN belongs under -0.25. On to VEGSKVTTD, for which the growth estimate is under -0.25. In the case of HASCVVVTNRSAPCLFSRGL it was under -0.25; in that of FSLRANKLGSKRELAHQWGV, under -0.25; in that of RLLE, under -0.25. To TLARETQFDLSK belongs under -0.25; to ARDRLFID, under -0.25. For the substance LRP, the growth estimate was under -0.25. In the case of SQAKVILLM it was under -0.25. In the case of NLVAAGKAALCGSSS it was under -0.25; in that of RSKGRA, under -0.25; in that of LHTLLFPIRGRLPCGE, -0.158. To DWNERIGYIRLLNFPRPSLS belongs under -0.25. As to LGRRT, the growth estimate is -0.229. For the substance RPCRSSHLTQPF, the growth estimate is under -0.25.

Regarding EWHHLGKDVSK, the growth estimate is under -0.25. In the case of RAYHTLLCPRPRARQVV it was under -0.25; in that of DIVRGNFGGLTQRRVGLCTR, under -0.25; in that of HLFPDRTRHITHPSDQ, under -0.25. To MLLNLYRHFNFRKQWNLSLV belongs under -0.25; to SSV, under -0.25. To KPPLGI belongs under -0.25; to VFPYCMTYAFH, under -0.25.

As for MRNP, the growth estimate was under -0.25.

As to SLGSLQKGIREKHGCRFG, the growth estimate was under -0.25. In the case of VHGECTGATDRHFRQLSLEV it was under -0.25; in that of TRLTSAET, under -0.25; in that of YSG, under -0.25.

PCTVLMTF: the growth estimate was under -0.25. To LINALPGFV belongs under -0.25; to GERTGSERG, under -0.25; to GMITVPSTDNGDPDGGGRYT, under -0.25.

In the case of SLRNGGGIVCLFDGTIPEPR, the growth estimate is -0.246. To GAFLPSEPGWWPLSFPNSWL belongs under -0.25; to IHFLIRCGGPLFS, under -0.25; to YSNAVGLVNHHQGEFAGGAC, under -0.25. In the case of VECRRHVFGCLGQMSPRTRR it was under -0.25. To LSKFATF belongs under -0.25; to SKFKWSHVVKGHRLVCSFIV, under -0.25; to VYISVQVTQTVPRLRILIVV, under -0.25.

On to HSAGRHSSALAWAAYATPTF, for which the growth estimate was under -0.25. To GFEVEGVILSCQYTSEA belongs under -0.25; to LHVHPF, under -0.25. In the case of CLGVSCAAPCWVPDLAMP it was under -0.25.
